Reference: patent publication US8653112B2, “Substituted pyrazoles as estrogen receptor ligands” (Karo Bio AB, priority 2009, dated 2014)
Some results were stated once for a whole list of compounds, not compound by compound.

Amino acid sequences for entries named in this document (tags omitted). Residues count along the entry.
UniProt Q92731, 255-530: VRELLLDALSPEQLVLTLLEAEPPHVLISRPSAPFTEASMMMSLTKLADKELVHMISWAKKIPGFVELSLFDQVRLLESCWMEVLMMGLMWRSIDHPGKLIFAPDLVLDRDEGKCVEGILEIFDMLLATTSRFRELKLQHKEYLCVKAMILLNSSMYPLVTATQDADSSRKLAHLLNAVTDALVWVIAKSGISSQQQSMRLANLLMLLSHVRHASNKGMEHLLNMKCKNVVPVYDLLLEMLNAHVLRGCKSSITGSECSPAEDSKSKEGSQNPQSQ
UniProt Q92731, whole entry: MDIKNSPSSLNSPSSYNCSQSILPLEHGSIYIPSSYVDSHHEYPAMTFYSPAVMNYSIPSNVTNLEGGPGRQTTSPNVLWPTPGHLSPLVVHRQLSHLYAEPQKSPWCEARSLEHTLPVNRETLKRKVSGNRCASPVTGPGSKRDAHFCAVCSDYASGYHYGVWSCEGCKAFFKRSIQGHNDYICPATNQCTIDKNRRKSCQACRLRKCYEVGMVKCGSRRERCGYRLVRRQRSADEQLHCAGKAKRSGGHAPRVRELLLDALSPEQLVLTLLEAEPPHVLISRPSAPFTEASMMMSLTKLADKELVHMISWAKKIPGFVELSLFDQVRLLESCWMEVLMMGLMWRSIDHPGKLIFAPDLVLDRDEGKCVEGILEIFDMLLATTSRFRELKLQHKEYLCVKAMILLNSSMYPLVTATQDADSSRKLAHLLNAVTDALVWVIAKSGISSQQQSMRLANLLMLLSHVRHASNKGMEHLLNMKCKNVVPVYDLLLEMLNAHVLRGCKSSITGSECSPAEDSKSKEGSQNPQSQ

Molecular target: T1, human ERβ (ERβ-LBD) (Homo sapiens, UniProt Q92731)
T1 construct: ERβ (ERβ-LBD, pET-N-AT #1, aa 255-530); biotinylation tag (in vivo biotinylated, pBirA co-expression); made in house; host or cells: E. coli BL21 (DE3) pBirA
Test: Binding assay 1: estrogen receptor binding assay (SPA, 3H-E2 displacement), ERβ
Conditions: binding assay 1, ERβ over ERα
Procedure: Binding Assay 1: Estrogen Receptor Binding Assay
The estrogen receptor ligand binding assays are designed as scintillation proximity assays (SPA), employing the use of tritiated estradiol (^3H-E2) and recombinant expressed biotinylated estrogen receptor binding domains. The binding domains of human ERα (ERα-LBD, pET-N-AT #1, aa 301-595) and ERβ (ERβ-LBD, pET-N-AT #1, aa 255-530) proteins are produced in E. coli ((BL21, (DE3), pBirA)) at 22 C in 2×LB medium supplemented with 50 uM biotin. After 3 h of IPTG induction (0.55 mM), cells are harvested by centrifugation at 7300×g for 15 min and cell pellets stored frozen in −20C. Extraction of ERα and ERβ are performed using 5 g of cells suspended in 50 mL of extraction buffer (50 mM Tris, pH 8.0, 100 mM KCl, 4 mM EDTA, 4 mM DDT and 0.1 mM PMSF). The cell suspension is run twice through a Microfluidizer M-110L (Microfluidics) and centrifuged at 15,000×g for 60 min. The supernatant is aliquoted and stored in −70C.
Dilute ERαLBD or ERβ-LBD extracts in assay buffer (18 mM K2HPO4, 2 mM KH2PO4, 20 mM NasMoO4, 1 mM EDTA, 1 mM TCEP) 1:676 and 1:517 for alpha and beta respectively. The diluted receptor concentrations should be 900 fmol/L. Preincubate the extracts with streptavidin coated polyvinyltoluene SPA beads (RPNQ0007, GE Healthcare) at a concentration of 0.43 mg/mL for 1 hr at room temperature.
Test compounds are evaluated over a range of concentrations from 157 μM to 37.5 pM. The test compound stock solutions should be made in 100% DMSO at 5× of the final concentration desired for testing in the assay. The amount of DMSO in the test wells of the 384 well plate will be 20%. Add 18 μl aliquots of test compounds to the assay plates followed by 35 μl of the preincubated receptor/SPA bead mix and finally add 35 μl of 3 nM ^3H-E2. Cover the plates with a plastic sealer, centrifuge for 1 minute at 1000 rpm and equilibrate over night on a shaker at room temperature. The following morning, centrifuge the plates 5 minutes at 2000 rpm and measure on a plate scintillation counter e.g. a PerkinElmer Microbeta 1450 Trilux.
For compounds able to displace 3[H]-E2 from the receptor an IC50-value (the concentration required to inhibit 50% of the binding of 3[H]-E2) is determined by a non-linear four parameter logistic model; b=((bmax−bmin)/(1+(1/IC50)S))+bmin I is added concentration of binding inhibitor, IC50 is the concentration of inhibitor at half maximal binding and S is a slope factor. The Microbeta-instrument generates the mean cpm (counts per minute) value/minute and corrects for individual variations between the detectors thus generating corrected cpm values.

Structure (SMILES) | selectivity for the estrogen receptor β-subtype over the α-subtype in the binding assay
Cc1ccn(C)c1-c1c(C(N)=NO)c(C)nn1-c1ccc(O)cc1F (single isomer, unassigned) [Example 8, 5-(1,3-dimethyl-1H-pyrrol-2-yl)-1-(2-fluoro-4-hydroxyphenyl)-N′-hydroxy-3-methyl-1H-pyrazole-4-carboximidamide] | ≥ 10
Cc1nn(-c2ccc(O)cc2)c(-c2c(C)noc2C)c1C=NO [Example 3, 5-(3,5-dimethylisoxazol-4-yl)-1-(4-hydroxyphenyl)-3-methyl-1H-pyrazole-4-carbaldehyde oxime] | ≥ 10

Molecular target: T2, human estrogen receptor beta (hERβ530) (Homo sapiens, UniProt Q92731)
T2 construct: expressed in transfected cells; host or cells: HEK293 (CRL-1573)
Test: Transactivation assay 2: HEK 293 cells stably transfected with pERE2-ALP and human estrogen receptor beta
Assay type: cell-based
Conditions: transactivation assays 1 and 2, ERβ over ERα

Structure (SMILES) | selectivity for the estrogen receptor β-subtype over the α-subtype in the transactivation assays
Cc1ccn(C)c1-c1c(C(N)=NO)c(C)nn1-c1ccc(O)cc1F (single isomer, unassigned) [Example 8, 5-(1,3-dimethyl-1H-pyrrol-2-yl)-1-(2-fluoro-4-hydroxyphenyl)-N′-hydroxy-3-methyl-1H-pyrazole-4-carboximidamide] | ≥ 50
Cc1noc(C)c1-c1c(-c2ccc(O)cc2F)nn(C)c1C=NO (single isomer, unassigned) [Example 48, 4-(3,5-dimethylisoxazol-4-yl)-3-(2-fluoro-4-hydroxyphenyl)-1-methyl-1H-pyrazole-5-carbaldehyde oxime] | ≥ 50
Cc1noc(C)c1-c1c(-c2ccc(O)cc2F)nn(C)c1C(N)=NO (single isomer, unassigned) [Example 50, 4-(3,5-dimethylisoxazol-4-yl)-3-(2-fluoro-4-hydroxyphenyl)-N′-hydroxy-1-methyl-1H-pyrazole-5-carboximidamide] | ≥ 50
C/C=C(/C)c1c(C(N)=NO)c(C)nn1-c1ccc(O)cc1F (single isomer, unassigned) [Example 51, 5-((Z)-but-2-en-2-yl)-1-(2-fluoro-4-hydroxyphenyl)-N′-hydroxy-3-methyl-1H-pyrazole-4-carboximidamide] | ≥ 50
Cc1cc(O)ccc1-n1nc(C)c(C(N)=NO)c1-c1c(C)noc1C (single isomer, unassigned) [Example 54, 5-(3,5-dimethylisoxazol-4-yl)-N′-hydroxy-1-(4-hydroxy-2-methylphenyl)-3-methyl-1H-pyrazole-4-carboximidamide] | ≥ 50
Cc1cc(O)ccc1-c1nn(C)c(C(N)=NO)c1-c1c(C)noc1C (single isomer, unassigned) [Example 64, 4-(3,5-dimethylisoxazol-4-yl)-N′-hydroxy-3-(4-hydroxy-2-methylphenyl)-1-methyl-1H-pyrazole-5-carboximidamide] | ≥ 50
Cc1nsc(C)c1-c1c(-c2ccc(O)cc2)nn(C)c1C=NO (single isomer, unassigned) [Example 70, 4-(3,5-dimethylisothiazol-4-yl)-3-(4-hydroxyphenyl)-1-methyl-1H-pyrazole-5-carbaldehyde oxime] | ≥ 50
Cc1nsc(C)c1-c1c(-c2ccc(O)cc2)nn(C)c1C(N)=NO (single isomer, unassigned) [Example 71, 4-(3,5-dimethylisothiazol-4-yl)-N′-hydroxy-3-(4-hydroxyphenyl)-1-methyl-1H-pyrazole-5-carboximidamide] | ≥ 50
Cc1nn(-c2ccc(O)cc2)c(-c2c(C)noc2C)c1C=NO [Example 3, 5-(3,5-dimethylisoxazol-4-yl)-1-(4-hydroxyphenyl)-3-methyl-1H-pyrazole-4-carbaldehyde oxime] | ≥ 50
Cc1noc(C)c1-c1c(-c2ccc(O)cc2)nn(C)c1C(N)=NO [Example 13, 4-(3,5-dimethylisoxazol-4-yl)-N′-hydroxy-3-(4-hydroxyphenyl)-1-methyl-1H-pyrazole-5-carboximidamide] | ≥ 50
CCc1nn(-c2cc(F)c(O)c(F)c2)c(-c2c(C)noc2C)c1C(N)=NO [Example 21, 1-(3,5-difluoro-4-hydroxyphenyl)-5-(3,5-dimethylisoxazol-4-yl)-3-ethyl-N′-hydroxy-1H-pyrazole-4-carboximidamide] | ≥ 50
CCc1nn(-c2ccc(O)c(F)c2)c(-c2c(C)noc2C)c1C(N)=NO [Example 22, 5-(3,5-dimethylisoxazol-4-yl)-3-ethyl-1-(3-fluoro-4-hydroxyphenyl)-N′-hydroxy-1H-pyrazole-4-carboximidamide] | ≥ 50
